Experimental data reported in publication PMC7102982.
These are yes or no findings as the source states them, for the method shown. Binding can be weak; no strength is given.

Legend:
[1] = biological target: Xenopus laevis FANCA, full length (Xenopus laevis); assay: SEC; co-expressed, purified FANCA-FANCG complex on Superdex 200 10/300 GL; 25 mM Tris-HCl pH 8.0, 0.2 M NaCl, 2 mM DTT; both purified
[2] = biological target: Xenopus laevis FANCA, full length (Xenopus laevis); assay: cryo-EM structure; single-particle cryo-EM of the purified FANCA-FANCG complex (0.8 mg/ml, 0.003% DDM); four classes: FANCA CTD dimer at 3.35 and 3.46 A, two FANCA-FANCG complexes at 4.59 and 4.84 A; both purified

- binding [1]: binds
- binding [2]: binds
B1: Xenopus laevis FANCG, full length (protein, UniProt A6YGN3 1-591)
chain: MAGLPATPQSLPLELSVLYNMLIFHIHSTSGFQDEHNKHIAETLSRVLRVCSPGVNVQSNEELWHQLVHGGYSSELAASLHRLAGLQGALWLAEEKLQEVHDLFSLLLHPEDSECSTNLRAEEKLLALLKAWRVSNEAEEKVLVVQPAQQLRDVLYTSAAFLQGILAMEASQHPYAINLFGEAAESLCSGRVLAQVYTCLGFCFQKMEKPQTALQYWKQALHLDFQCLAALYHSSSVYKEMGNVDAELEALNLLYKALLSPEQEAPSTKTCFLIGTEQIVNAPSLTSAVRAPSPWKVKYLIARRCLENKRGEEAVEHYLDLLALLQDESHQDLLPNPEPLIRIPEVFLETAAGLVLEKRYQDAMTVCEEVLGRTDDLIPGSLSVDSTQSKSNVMAEQLNLVLWASAAHLHQGLSHGLLGDQKESVTEYTKCINLLVKVQFIDTGCASPHCSRGSGDEMEISLIGLCSKEETVLCALKAAAFLGRSRQFLALGKHKESLLNMQLSLQASPAFPGAALTLVGHLIKLGRRTEAGSYLKRYQSERKTLADQWEAMKRNLPLYLDPHINHTFPAEDSLIKELEESAEEMQSEAVV
